Laboratory results reported in patent US20240197725A1, “METHOD AND COMPOSITION FOR THE PREVENTION OR TREATMENT OF OSTEOARTHRITIS” (Rhode Island Hospital, priority 2021, published 2024).
Entries after “also recorded” stand apart in the source; their conditions may differ. At least one compound was matched to its structure with a doubt left.

Key:
SHP2 [1] = target: T1, SHP2 (Mus musculus, UniProt P35235); assay: SHP2 degradation in Prg4+ articular cartilage cells (Western blot); format: cell-based, murine
T1 construct: endogenous in cells; host or cells: Prg4+ murine articular cartilage (AC) cells

[2] = system: Prg4+ murine articular cartilage (AC) cells; assay: Anabolic marker expression in Prg4+ AC cells; format: cell-based; details: 100 nM; 48 hr, vs vehicle (DMSO); listed as SHP2D26
[3] = system: Prg4+ murine articular cartilage (AC) cells; assay: Cell proliferation of Prg4+ AC cells; format: cell-based; details: 100 nM; 48 hr, vs vehicle (DMSO); listed as SHP2D26
cancer cells = details: versus SHP099; cited from earlier work
SHP2 [4] = target: SHP2 (Homo sapiens, UniProt Q06124); set-up: host or cells: esophageal cancer cells (endogenous SHP2); details: cited from earlier work

For Cc1ncsc1-c1ccc([C@H](C)NC(=O)[C@@H]2C[C@@H](O)CN2C(=O)[C@@H](NC(=O)CCCCCCCCN2CCN(C(=O)CCC(=O)Nc3cccc(Sc4ncc(N5CCC(C)(N)CC5)nc4N)c3Cl)CC2)C(C)(C)C)cc1 [SHP-D26, (2S,4R)-1-((S)-2-(9-(4-(4-((3-((3-amino-5-(4-amino-4-methylpiperidin-1-yl)pyrazin-2-yl)thio)-2-chlorophenyl)amino)-4-oxobutanoyl)piperazin-1-yl)nonanamido)-3,3-dimethylbutanoyl)-4-hydroxy-N-((S)-1-(4-(4-methylthiazol-5-yl)phenyl)ethyl)pyrrolidine-2-carboxamide], the SHP2 protein level (SHP2 [1]; 50 nM, 12hrs, Prg4+ murine AC cells) was “essentially eliminated SHP2”, the “reversibility of SHP2 degradation” value (SHP2 [1]; upon removal of compound, listed as SHP2D26) was “reversable in a week; also recorded: reversal of SHP2D26-mediated SHP2 degradation in a week” and the Acan1 [2] was “increase”. For the same molecule, the Col2a1 [2] was “increase”, the Col10a1 [2] was “increase” and the SOX9 [2] was “increase”. For the same molecule, the cell proliferation [3] was “increase”, the “potency in inhibition of cell growth relative to SHP099” value (cancer cells) was “in cancer cells. SHP2-D26 is >30-times” and the “degradation of SHP2” value (SHP2 [4]; esophageal cancer cells, 20 nM, 12 hrs) was “over 95%”. The “reduction of SHP2 protein levels” value (SHP2 [4]; in cancer cells) was “reduce SHP2 protein levels by >95%”.
